Assay results as given in US20030113837.
For at least one entry, the source does not settle the construct or the ends of the probe. Protein sequences can lack the tags named with them.

Assays:
[1] = target: T1, H-TnpI (Bacillus thuringiensis) (UniProt P10020); experiment: enzyme reaction in vitro; details: 37 C, purified recombinant protein, protein details: N-terminal His-tag (pBAD/HisA, Invitrogen), variant of TRT″
T1 sequence: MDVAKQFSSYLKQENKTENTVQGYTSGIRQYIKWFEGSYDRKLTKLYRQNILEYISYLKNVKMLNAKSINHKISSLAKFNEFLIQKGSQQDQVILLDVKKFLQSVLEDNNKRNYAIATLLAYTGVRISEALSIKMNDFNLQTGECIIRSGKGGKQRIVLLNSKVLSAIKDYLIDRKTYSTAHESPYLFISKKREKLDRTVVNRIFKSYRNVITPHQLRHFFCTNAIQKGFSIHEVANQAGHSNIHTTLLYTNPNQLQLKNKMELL

[2] = target: T2, TnpI (partially purified wild-type) (Bacillus thuringiensis) (UniProt P10020); experiment: enzyme reaction in vitro; details: activity similar to His-tagged protein, 37 C, purified recombinant protein, variant of TRT″
T2 sequence: T1 sequence

[3] = target: T3, TnpI (wild-type) (Bacillus thuringiensis) (UniProt P10020); experiment: activity in cells; details: E. coli, protein in cells
T3 sequence: T1 sequence

TAATACAACACAATATTAATTGTGTTGTATTA (double strand) [TRT]
activity on this sequence ([1]; two directly repeated sites on supercoiled plasmid pGIV016, same buffer, slower than TRT′, catenanes of varied complexity and knots): active
activity on this sequence ([2]; plasmid pGIV016): active

GGTACCGCCAGCATTTCGGAAAAAAACCACGCTAAGAAAATCAGAGTTAAAAAATCAGAAAATATATCATTATTCCTTGACACATACATGTTCTTTTTTTATACAAAAAATAATACAACACAATATTAATTGTGTTGTATTAGGTGTTATAATAAATATAAATCTAGGGGTTTAACGCAACACAATTTATCGATAAATAAATACTTTTAGACGCAACACAATTTATAGACGCGGAGGAAATCAC (double strand) [TRT″]
activity on this sequence ([3]; arabinose-induced TnpI, two direct repeat copies on plasmid, recombination detected): active

TAATACAACACAATATTAATTGTGTTGTATTAGGTGTTATAATAAATATAAATCTAGGGGTTTAACGCAACACAATTTATCGATAAATAAATACTTTTAGACGCAACACAATTTATAG (double strand) [TRT′]
activity on this sequence ([3]; expected deletion product only with TnpI, variant of TRT″): active
activity on this sequence ([1]; two directly repeated sites on supercoiled plasmid pGIV014, 50 mM Tris pH 8.0, 25 mM KCl, 1.25 mM EDTA, 5 mM spermidine, faster than TRT): active
activity on this sequence ([2]; plasmid pGIV014): active
